Three substances from publication PMC11294477 can be followed below.

Amino acid sequences for entries named in this document (tags omitted). A change or cut given only in a name is not applied to a line headed by its entry.
UniProt Q9UPV7: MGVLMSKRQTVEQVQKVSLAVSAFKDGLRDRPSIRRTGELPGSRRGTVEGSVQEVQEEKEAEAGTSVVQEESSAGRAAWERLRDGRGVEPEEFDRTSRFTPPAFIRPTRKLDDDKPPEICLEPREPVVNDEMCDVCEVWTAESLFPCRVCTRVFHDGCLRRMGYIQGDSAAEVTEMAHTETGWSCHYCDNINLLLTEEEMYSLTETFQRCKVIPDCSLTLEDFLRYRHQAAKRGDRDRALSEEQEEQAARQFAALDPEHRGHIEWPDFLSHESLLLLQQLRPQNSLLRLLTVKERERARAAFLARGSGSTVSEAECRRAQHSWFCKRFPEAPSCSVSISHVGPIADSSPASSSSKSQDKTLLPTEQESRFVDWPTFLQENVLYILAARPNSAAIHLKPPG
UniProt P50148: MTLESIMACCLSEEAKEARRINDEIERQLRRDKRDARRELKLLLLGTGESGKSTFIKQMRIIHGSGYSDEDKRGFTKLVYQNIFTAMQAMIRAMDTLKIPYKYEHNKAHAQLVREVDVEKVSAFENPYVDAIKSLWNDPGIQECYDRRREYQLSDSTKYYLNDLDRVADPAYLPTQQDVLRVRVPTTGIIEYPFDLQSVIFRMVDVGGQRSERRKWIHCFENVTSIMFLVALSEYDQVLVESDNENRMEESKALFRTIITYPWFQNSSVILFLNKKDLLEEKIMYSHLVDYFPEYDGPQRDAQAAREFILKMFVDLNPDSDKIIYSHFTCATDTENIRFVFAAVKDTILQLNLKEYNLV
UniProt P63096: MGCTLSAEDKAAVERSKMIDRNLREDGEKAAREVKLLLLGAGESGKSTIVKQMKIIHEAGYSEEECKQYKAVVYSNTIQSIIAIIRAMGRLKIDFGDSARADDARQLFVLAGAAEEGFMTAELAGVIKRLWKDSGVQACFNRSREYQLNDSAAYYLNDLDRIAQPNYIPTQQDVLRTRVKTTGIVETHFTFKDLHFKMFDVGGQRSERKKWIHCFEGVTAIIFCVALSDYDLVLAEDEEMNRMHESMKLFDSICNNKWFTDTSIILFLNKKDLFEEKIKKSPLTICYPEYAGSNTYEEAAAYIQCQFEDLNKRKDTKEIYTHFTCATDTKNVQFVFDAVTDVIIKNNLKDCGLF

Test [1] deals with T1, LPHN2-GFP (UniProt O95490).
T1 sequence: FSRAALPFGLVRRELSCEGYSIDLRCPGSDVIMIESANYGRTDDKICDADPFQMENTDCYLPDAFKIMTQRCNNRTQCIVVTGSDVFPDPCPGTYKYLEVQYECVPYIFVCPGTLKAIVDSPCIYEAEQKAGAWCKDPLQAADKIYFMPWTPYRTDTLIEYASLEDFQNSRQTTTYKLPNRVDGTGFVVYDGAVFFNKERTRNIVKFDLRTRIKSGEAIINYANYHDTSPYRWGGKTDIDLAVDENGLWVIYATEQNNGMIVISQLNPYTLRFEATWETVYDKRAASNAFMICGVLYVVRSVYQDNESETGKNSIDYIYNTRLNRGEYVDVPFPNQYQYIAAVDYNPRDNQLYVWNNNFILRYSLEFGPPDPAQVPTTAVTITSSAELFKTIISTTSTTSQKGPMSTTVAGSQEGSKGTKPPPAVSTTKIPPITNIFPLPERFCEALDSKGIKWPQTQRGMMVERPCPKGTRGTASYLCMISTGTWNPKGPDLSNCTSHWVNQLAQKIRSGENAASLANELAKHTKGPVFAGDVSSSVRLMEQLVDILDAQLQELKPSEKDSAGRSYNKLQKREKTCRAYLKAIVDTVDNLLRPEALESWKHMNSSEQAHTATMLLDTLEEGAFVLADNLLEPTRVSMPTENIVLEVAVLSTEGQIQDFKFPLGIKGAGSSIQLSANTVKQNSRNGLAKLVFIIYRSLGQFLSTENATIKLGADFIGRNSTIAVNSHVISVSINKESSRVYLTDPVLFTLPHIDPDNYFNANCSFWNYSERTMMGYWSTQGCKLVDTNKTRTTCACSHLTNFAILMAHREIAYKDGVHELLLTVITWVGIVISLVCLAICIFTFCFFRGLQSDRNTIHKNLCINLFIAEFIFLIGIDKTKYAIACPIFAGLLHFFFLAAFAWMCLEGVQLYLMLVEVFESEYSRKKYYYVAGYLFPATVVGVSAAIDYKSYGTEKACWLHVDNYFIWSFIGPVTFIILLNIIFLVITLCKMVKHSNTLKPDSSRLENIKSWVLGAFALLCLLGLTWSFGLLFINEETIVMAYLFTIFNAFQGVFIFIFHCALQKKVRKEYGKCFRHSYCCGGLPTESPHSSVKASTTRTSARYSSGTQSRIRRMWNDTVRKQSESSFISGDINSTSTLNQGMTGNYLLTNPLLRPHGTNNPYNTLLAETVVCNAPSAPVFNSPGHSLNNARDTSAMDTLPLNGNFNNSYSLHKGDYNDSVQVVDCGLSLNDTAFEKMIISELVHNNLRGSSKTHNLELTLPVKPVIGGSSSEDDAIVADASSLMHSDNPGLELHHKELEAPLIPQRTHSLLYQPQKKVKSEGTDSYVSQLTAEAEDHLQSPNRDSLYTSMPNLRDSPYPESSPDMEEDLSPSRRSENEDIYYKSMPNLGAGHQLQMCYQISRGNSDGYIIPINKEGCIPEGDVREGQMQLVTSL
Nature of the test: co-IP; LPHN2-GFP with Gα proteins containing internal GluGlu epitope tags.

In test [2] the target is GST-tagged GINIP protein (UniProt Q9UPV7). Nature of the test: pull-down; HUVECs expressing GluGlu-tagged Gα (Gq together with Ric8A), ± FSS (also after PECAM-1 or LPHN2 siRNA), lysed in 10 mM Tris-HCl pH 7.5, 150 mM NaCl, 1% Triton X-100, 5 mM DTT with 2 µg/ml GST-GINIP or GST-GRK2N; glutathione beads 10 min at 4 °C; western blot; only the target purified. For orientation: Immunoblotting shows a protein as a band on a membrane.

No constants are given. Whether binding was seen depends on the method and setting. In cells and extracts the contact can be indirect. Some entries that bind do so weakly or less than the wild type. For some of these results: Sequences can lack the tags named with a protein.

Regarding “GluGlu-tagged Gq (from UniProt P50148 1-359)”, the binding result in test [1] is “binds”.

On to “GluGlu-tagged Gi1(Q306K) (from UniProt P63096 1-354)”, for which the binding entry in test [1] and in test [2] was “binds” each time. Turning to “GluGlu-tagged wild-type Gi1 (from UniProt P63096 1-354)”, in test [1], the binding entry is reported as “no binding”.
